# Laboratory results taken from PubChem BioAssay AID2685 (National Center for Advancing Translational Sciences (NCATS), 2010).
# The other results are listed elsewhere or left out. These are further read-outs of the screen, such as a control signal, another cell line or another target. No call is given for them. The list favours compounds with an active or inconclusive main result. Words in brackets tell the shape of the fitted curve; partial curves, single points and poor fits give uncertain potencies.
# Experiment: qHTS Assay for Lipid Storage Modulators in Drosophila S3 Cells;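 on cell number change: cells counted by Cell Tracker Red CMTPX staining in the red channel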
# Conditions: BODIPY lipid droplet fluorescence, 18-24 h; for cell number change: measured here: cell count max response, cells fed with added oleic acid
# Summary of the method: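 Drosophila S3 cells got compounds at several concentrations plus oleic acid (400 uM solution). Laser-scanning cytometry with 488 nm excitation read lipid droplets at 500-530 nm and cells at 575-640 nm. Percent activity was relative to 20 uM Triacsin C.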
# [1] = measured here: cell number channel AC50, cells fed with added oleic acid
# [2] = measured here: lipid fluorescence (Fed channel) AC50, cells fed with added oleic acid
Structure (SMILES),cell number change,AC50 [1],AC50 [2]
CCOC(=O)N1CCN(C(=O)c2ccc3c(=O)n(CC4CCCO4)c(=S)[nH]c3c2)CC1 (centres undefined),5.12%,,
COc1nccnc1NS(=O)(=O)c1ccc(NC(=O)c2cccc(C)c2)cc1,-19.8%,"4.61 µM [falling, single point]","3.26 µM [falling, full curve]"
O=C(Cc1c(F)cccc1Cl)NNC(=O)c1ccncc1,14.1%,,"0.00461 µM [rising, full curve, poor fit]"
S=c1[nH]nc(COc2ccccc2)n1/N=C/c1cccnc1,,,"29.1 µM [rising, single point]"
CC1CC(C)CN(C(=O)COC(=O)c2ccc3ncsc3c2)C1 (centres undefined),21%,"2.91 µM [falling, single point]",
O=C(CNC(=O)C1COc2ccccc2O1)N/N=C/c1ccc([N+](=O)[O-])cc1 (centres undefined),-12.7%,,"29.1 µM [rising, single point]"
C#CCOCCOCCOCCNc1nc(N2CCN(C(=O)Cn3cc(CC(C)O)nn3)CC2)nc(N2CCN(C(=O)[C@H](CCCCN)n3cc(CCC(=O)O)nn3)CC2)n1 (some centres undefined),8.81%,"0.00517 µM [rising, full curve, poor fit]",
CCOC(=O)CCn1c(CC(=O)OCC)nc2ccccc21,-13%,,"6.51 µM [rising, partial curve, poor fit]"
C/C(=N\O)C1CCCCC1,-11.7%,,"20.6 µM [falling, single point]"
COC(=O)N/N=C/c1ccc([N+](=O)[O-])o1,-28.8%,,"18.4 µM [falling, partial curve]"
COc1ccc(Cc2nn3c(-c4ccccc4OC)nnc3s2)cc1,15.9%,,"0.58 µM [rising, single point]"
CC(C)CC(NC(=O)c1ccc(Cl)cc1)C(=O)O (centres undefined),0.116%,,
O=C(NCCCCc1ccccc1)C1CCCC1,20.8%,,
CCc1nn(CCCC(=O)NCc2cc(Br)ccc2OC)c(=O)c2cc3occc3n12,-35.8%,"29.1 µM [falling, single point]",
Cc1ccc(NC(=O)/C=N/OCC(=O)NCc2ccccc2Cl)cc1,-14.8%,,"8.2 µM [falling, partial curve]"
Cc1ccc(Cn2ccc(NC(=O)c3cc(-c4ccc(Cl)cc4)on3)n2)cc1,-10.3%,,
CC(=O)c1ccc(OC(=O)COc2ccccc2)cc1,-13%,,"0.00517 µM [falling, full curve, poor fit]"
c1ccc(OCCOc2ncnc3ccccc23)cc1,-6.13%,,
CC(=O)c1c(N2CCN(Cc3ccccc3)CC2)[nH]c(-c2ccccc2)nc1=S,-29%,,"0.82 µM [falling, partial curve, poor fit]"
CCCCNc1c(-c2ccc(SC3CCCCC3)c(OC)c2)nc2ccc(Cl)cn12,-54.3%,"14.6 µM [falling, partial curve]",
Cn1nccc1/C=N\NC(=O)c1ccc(Cl)cc1,-35.3%,,

# No new results follow: entries from further up.
Structure (SMILES),cell number change,AC50 [1],AC50 [2]
S=c1[nH]nc(COc2ccccc2)n1/N=C/c1cccnc1,,,"29.1 µM [rising, single point]"
CC1CC(C)CN(C(=O)COC(=O)c2ccc3ncsc3c2)C1 (centres undefined),21%,"2.91 µM [falling, single point]",
O=C(CNC(=O)C1COc2ccccc2O1)N/N=C/c1ccc([N+](=O)[O-])cc1 (centres undefined),-12.7%,,"29.1 µM [rising, single point]"
C#CCOCCOCCOCCNc1nc(N2CCN(C(=O)Cn3cc(CC(C)O)nn3)CC2)nc(N2CCN(C(=O)[C@H](CCCCN)n3cc(CCC(=O)O)nn3)CC2)n1 (some centres undefined),8.81%,"0.00517 µM [rising, full curve, poor fit]",

# Further structures:

Structure (SMILES),cell number change,AC50 [1],AC50 [2]
CCOC(=O)c1sc2nc(C)c3c(c2c1N)CC(C)(C)OC3,99.5%,"3.66 µM [rising, full curve]","2.06 µM [rising, partial curve]"
S=c1nccc(-c2ccc(Cl)cc2)[nH]1,19%,,"0.00517 µM [falling, full curve, poor fit]"
Cc1ccccc1C(=O)NCC(=O)OC(C)C(=O)Nc1cccc(S(=O)(=O)N2CCOCC2)c1 (centres undefined),40.2%,"32.6 µM [rising, partial curve]",
Cc1c(C(=O)N2CCOCC2)sc(NC(=O)c2ccccc2F)c1C#N,-5.71%,,
CCCCNC(=O)C1CC(=O)N(C2CCCC2)C1 (centres undefined),49.6%,"3.66 µM [falling, single point]","0.82 µM [falling, full curve]"
COc1ccc(CCNC(=O)c2sc(=S)n(C)c2N)cc1,28.4%,"0.184 µM [rising, single point]","0.517 µM [rising, full curve, poor fit]"
COc1ccc(CN2CCc3ccc(NC(=O)CCc4ccccc4OC)cc3C2)c(O)c1,-23.7%,,"23.1 µM [rising, single point]"
Clc1cccc(Cl)c1/C=C/c1nc2ccccc2[nH]1,16.1%,,
O=C(COC(=O)/C=C/c1ccc(C(F)(F)F)cc1)NCC1CCCO1 (centres undefined),-25%,"0.0291 µM [falling, full curve, poor fit]","16.4 µM [falling, single point]"
COC(=O)c1ccc(C(=O)N(Cc2ccccc2)c2ccccc2)cc1,-1.85%,,"3.55 µM [rising, single point]"
O=C(Cc1ccc(Cl)cc1Cl)Nc1ccncc1Cl,-37%,"14.6 µM [falling, partial curve, poor fit]","10.3 µM [falling, partial curve, poor fit]"
CCC(C)N(C(=O)COC(=O)c1cc([N+](=O)[O-])ccc1N)C1CCS(=O)(=O)C1 (centres undefined),17.6%,,"29.1 µM [rising, single point]"
CC(=O)Nc1ccc(-c2nnc(SCC(=O)c3ccc4c(c3)Cc3ccccc3-4)n2C)cc1,-63.5%,"14.6 µM [falling, partial curve]","16.4 µM [falling, single point]"
CSc1ccc(NC(=O)NCCCN2CCC(Cc3ccccc3)CC2)cc1,61.1%,"29.1 µM [rising, single point]","0.58 µM [falling, single point]"
O=C(CSc1nnnn1C1CCCCC1)Nc1nc2c(s1)CCCC2,,"0.092 µM [rising, full curve, poor fit]","14.6 µM [falling, single point]"
CC(NC(N)=O)C(=O)OCC(=O)c1ccc(-c2ccccc2)cc1 (centres undefined),-2.71%,,
CCN(CC)S(=O)(=O)c1ccc(C(=O)NNC(=O)c2csc(N3CCOCC3)n2)cc1,-48%,"29.1 µM [falling, single point]","29.1 µM [falling, single point]"
COc1cccc(C2CC(c3cccs3)=NN2C(=O)CSC2=NN3CCCC(=O)N=C3S2)c1OC (centres undefined),-3.45%,,"6.51 µM [falling, partial curve]"
CS(=O)(=O)Cc1nc2ccccc2oc1=O,-43.3%,"29.1 µM [falling, single point]","0.103 µM [falling, full curve, poor fit]"
CCOc1ccc(S(=O)(=O)N2CCC(C(=O)NC3CCCC3)CC2)cc1,5.49%,,"1.84 µM [rising, partial curve, poor fit]"
COc1cc(/C=N/NC(=O)NC23CC4CC(CC(C4)C2)C3)ccc1OCC(N)=O,-5.56%,,"0.103 µM [rising, full curve]"

Structure (SMILES),cell number change,AC50 [1],AC50 [2]
Cc1nc(N2CCc3ccccc3C2)[nH]c(=O)c1Cc1ccccc1,5.53%,,
Cc1cccc(C(=O)NC(=S)Nc2ccc(S(=O)(=O)N3CCN(C)CC3)cc2)c1,28.8%,"0.58 µM [rising, full curve, poor fit]",
Cc1ccc(-c2noc(CCCC(=O)NC3CCCC3)n2)cc1,2.86%,,
CC1(c2ccc3ccccc3c2)NC(=O)NC1=O (centres undefined),11.7%,,"29.1 µM [falling, single point]"
COC(=O)[C@@]12CCCCN1[C@H](c1ccc(-c3ccc(F)cc3)c(OC)c1)[C@@H]1C(=O)N(C)C(=O)[C@@H]12,-37.7%,"23.1 µM [falling, single point]","29.1 µM [falling, single point]"
CCc1noc(C)c1C(=O)Nc1nc2ccc(OC)cc2s1,12.2%,,
Cc1cc2cc(CNC(=O)c3ccc4c(c3)OCO4)ccc2n1C,,"2.06 µM [rising, partial curve]","2.06 µM [rising, partial curve]"
Cc1ccc(CN2CCNC(=O)C2CC(=O)NCc2cc(C)n(C)n2)cc1 (centres undefined),-0.269%,,"23.1 µM [rising, single point]"
CN(C)CCOC(=O)c1cccc(Br)c1,-8.98%,,
CCOc1ccc(N(CC(=O)N/N=C/c2cc([N+](=O)[O-])ccc2Cl)S(C)(=O)=O)cc1,18.7%,,
COc1cccc(C(=O)NC2CC3CCCC(C2)N3CC(=O)Nc2ccccc2C(F)(F)F)c1 (centres undefined),46.1%,"32.6 µM [rising, single point]",
Cc1nc(NC(=O)c2ccccc2[N+](=O)[O-])sc1C(=O)N(C)C,-2.61%,,"4.11 µM [falling, full curve]"
COc1ccc(CC(=O)Nc2nc3ccccc3s2)cc1S(=O)(=O)N1CCOCC1,-4.27%,,"1.46 µM [rising, partial curve, poor fit]"
COC(CNC(=O)C1CCN(S(=O)(=O)c2cccc3nsnc23)CC1)OC,-13.3%,,
COc1ccc(Cn2c(SCC(=O)NCc3ccco3)nc3ccsc3c2=O)cc1,26.6%,"0.731 µM [rising, full curve, poor fit]","1.3 µM [rising, full curve]"
C=CCn1c(SCC#N)nc2ccccc2c1=O,-20.5%,,"29.1 µM [rising, single point]"
Cc1ccc(C(c2c(C)[nH][nH]c2=O)c2c(C)[nH][nH]c2=O)cc1[N+](=O)[O-],2.96%,,"0.366 µM [falling, single point]"
Cc1cccc(NS(=O)(=O)c2ccc(C)c(C(=O)NCCCN3CCOCC3)c2)c1,1.39%,,"6.51 µM [rising, single point]"
O=C(CSc1n[nH]c(-c2ccccc2Br)n1)NCCN1C(=O)CSC1=O,-36.9%,"11.6 µM [falling, partial curve]","16.4 µM [falling, partial curve]"
